Measurements published in PubChem BioAssay AID2685 (National Center for Advancing Translational Sciences (NCATS), 2010).
In all, about 320,000 compounds went through this assay and about 2,100 (0.66%) were called active. The inconclusive results got no clear call from the source; some entries with a clear call stand among them for comparison. Calls come from the whole dose curve; as a rule, active = well fitted inhibition curve with a large enough effect in the signal ratio, with a control signal flat (not every such curve was filed as active); inconclusive = small, poorly fitted or top-dose-only effect, or effect the other way, or a change in a side signal; inactive = flat fitted curve, though single readings scatter; the % refers to the signal ratio. Where the call is inconclusive, the potency comes from a doubtful curve fit.
% is set by controls: 0 for no effect and ±100 for the full control effect; potency is the fitted concentration of half-maximal effect.

Experiment: qHTS Assay for Lipid Storage Modulators in Drosophila S3 Cells
Settings: BODIPY lipid droplet fluorescence, 18-24 h, cells fed with added oleic acid; lipid storage change, negative = inhibition: at 46.1 µM (top of the series) unless noted
Outline: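 Drosophila S3 cells got compounds at several concentrations plus oleic acid (400 uM solution). Laser-scanning cytometry with 488 nm excitation read lipid droplets at 500-530 nm and cells at 575-640 nm. Percent activity was relative to 20 uM Triacsin C.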
For CCOCCCNC(=O)C1CCCCN1S(=O)(=O)c1ccc(F)cc1 (configuration not stated), the lipid storage change, negative = inhibition was inconclusive: 4.72%. With Cc1ccc(S(=O)(=O)NCc2nnc(SCC(=O)Nc3cccc(C)c3C)n2C)cc1 the lipid storage change, negative = inhibition was inconclusive: 44.9%. With CC(C)(C)c1cc(C(=O)Nc2ccc(F)cc2)n(Cc2ccc(F)cc2)n1 the lipid storage change, negative = inhibition was inconclusive: -26.5%. In the case of COC(=O)N/N=C1/C/C(=N\NC(=O)OC)c2ccccc21, the lipid storage change, negative = inhibition is reported as inconclusive: 4.93%. For CN(C)c1ccc(-c2nc3ccccc3c(=O)[nH]2)cc1, the lipid storage change, negative = inhibition was inconclusive: 20.7%. For COc1ccc(NC(=O)c2ccc(N3C(=O)C4CC=C(Cl)CC4C3=O)cc2)cc1 (configuration not stated), the lipid storage change, negative = inhibition was inconclusive: -22.2%. With O=C(CCS(=O)(=O)c1ccc(Br)cc1)N1CCN(c2ccc(F)cc2)CC1 the lipid storage change, negative = inhibition was inconclusive: -40.4%. With CCCn1c(=O)[nH]c(=O)c2c1nc(-c1ccc(OC(F)(F)C(F)C(F)(F)F)cc1)n2CCOC (configuration not stated) the lipid storage change, negative = inhibition was inconclusive: -7.22%. With O=S(=O)(c1ccc2ccccc2c1)N1CCN(C2Cc3ccccc3C2)CC1 the Potency was inconclusive: 0.13 µM [rising, full curve, poor fit]. In the case of CC1CCCCC1NC(=O)COC(=O)/C=C/c1ccc2c(c1)OCO2 (configuration not stated), the lipid storage change, negative = inhibition is reported as inconclusive: -25.6%. With CCN(CC(=O)Nc1ccccc1OC)C(=O)c1ccc(NC(=O)c2cccs2)cc1 the lipid storage change, negative = inhibition was inconclusive: -66.1%. For Cc1cc(=O)[nH]c(SCC(=O)Nc2ccc(Br)cc2)c1C#N, the lipid storage change, negative = inhibition was inconclusive: -6.62%. For O=C(O)Cc1ccc(C(=O)c2ccccc2)s1, the Potency was inconclusive: 20.6 µM [activator, single point]. For O=C1c2ccccc2C(O)(c2ccccc2)N1C1CC1 (configuration not stated), the lipid storage change, negative = inhibition was inconclusive: 3.05%. With O=C1N=C(N2CCOCC2)CS1 the lipid storage change, negative = inhibition was inconclusive: -21.9%. With NC(=O)c1ccsc1NC(=O)CS(=O)(=O)c1ccc(F)cc1 the lipid storage change, negative = inhibition was inconclusive: 33.1%. In the case of O=c1cc(NCCO)c2ccccc2o1, the lipid storage change, negative = inhibition is reported as inconclusive: -16.6%. With CCN(CCn1cccn1)C(=O)c1cc(COc2ccc(F)c(F)c2)on1 the lipid storage change, negative = inhibition was inconclusive: 121%. In the case of Cc1cccc(NC(=S)NN2CCN(C)CC2)c1C, the “outcome” value is reported as “inactive [at 46.1 µM]”. With CSc1ccc(S(=O)(=O)N2CCC(C(=O)NCC3CCCO3)CC2)cc1 (configuration not stated) the lipid storage change, negative = inhibition was inconclusive: 24.9%. For O=C(O)c1ccc(NS(=O)(=O)c2cccc(C(=O)Nc3ccc([N+](=O)[O-])cc3)c2)cc1, the lipid storage change, negative = inhibition was inconclusive: 26.8%. With CCOc1ccc(C2C(C(=O)c3cccs3)=C(O)C(=O)N2CCN2CCOCC2)cc1 (configuration not stated) the “lipid storage change, negative = inhibition” value was inactive: -0.573%. With O=c1[nH]ncc(N/N=C\c2ccc(O)cc2O)c1Cl the lipid storage change, negative = inhibition was inconclusive: -27.7%. For CCCCn1c(SCC(=O)Nc2nc(C)cs2)nnc1-c1cccnc1, the lipid storage change, negative = inhibition was inconclusive: 33.4%. For CCC(Oc1ccc(C)cc1)C(=O)Nc1ccccc1C(=O)N1CCOCC1 (configuration not stated), the lipid storage change, negative = inhibition was inconclusive: -47%. In the case of O=S(=O)(Nc1c(S(=O)(=O)c2ccccc2)c2nc3ccccc3nc2n1C1CCCCC1)c1ccccc1, the Potency is reported as inconclusive: 5.8 µM [activator, partial curve]. With Cc1csc(SCC(=O)NCc2ccccc2)n1 the lipid storage change, negative = inhibition was inconclusive: -14.9%. With C=CCc1cccc(/C=N/NC(=O)C[n+]2ccccc2)c1O the lipid storage change, negative = inhibition was inconclusive: 79.9%. With Cc1ccc(OCc2ccc(C(=O)Nc3cc(C)on3)o2)c([N+](=O)[O-])c1 the lipid storage change, negative = inhibition was inconclusive: 13.6%. With CCOC(=O)N1CCN(c2c(N3CCN(c4ccccc4OC)CC3)c(=O)c2=O)CC1 the lipid storage change, negative = inhibition was inconclusive: 3.96%. With COCCCNC(=O)CN1C(=O)/C(=C/c2ccccc2C)Sc2ccccc21 the lipid storage change, negative = inhibition was inconclusive: 1.47%. For C/C(=N\NC(=O)c1ccc(CN2CCOCC2)cc1)c1cccc([N+](=O)[O-])c1, the lipid storage change, negative = inhibition was inconclusive: 23.5%. For Cc1cc(C(=O)O)cc(S(=O)(=O)Nc2ccccc2C(=O)NC2CC2)c1C, the Potency was inconclusive: 2.06 µM [falling, partial curve]. With c1ccc(CNc2ncnc3c2oc2ccccc23)nc1 the Potency was inconclusive: 20.6 µM [falling, single point]. For COc1cc(C)c(S(=O)(=O)n2c([N+](=O)[O-])cnc2C)cc1C, the Potency was inconclusive: 18.4 µM [activator, single point]. In the case of COCCn1c(SCC(=O)N2CCCc3ccccc32)nc2cccnc21, the Potency is reported as inconclusive: 1.46 µM [activator, partial curve]. In the case of CCOc1ccccc1CN1CCN(Cc2ccc(C)o2)C(CCO)C1 (configuration not stated), the lipid storage change, negative = inhibition is reported as inconclusive: 24.3%. With FC(F)(F)c1cccc(N/N=C/c2ccccc2)c1 the Potency was inconclusive: 13 µM [falling, single point]. In the case of O=C(C(=O)N1CCCCC1)c1cn(CC(=O)N2CCCCCC2)c2ccccc12, the Potency is reported as inconclusive: 14.6 µM [falling, partial curve, poor fit]. For COc1ccc2cc(C(=O)NCC3CCCO3)[nH]c2c1 (configuration not stated), the Potency was inconclusive: 7.31 µM [activator, partial curve, poor fit]. With CCOc1ccc(C(=O)NCC(=O)OC(C)C(=O)NCc2ccco2)cc1OCC (configuration not stated) the lipid storage change, negative = inhibition was inconclusive: 4.25%. For c1ccc(Oc2cccc(NC3=NCCC3)c2)cc1, the Potency was inconclusive: 25.9 µM [activator, single point]. In the case of O=C(Nc1cccnc1)c1ccc(-c2cc(Cl)ccc2Cl)o1, the lipid storage change, negative = inhibition is reported as inconclusive: -12.2%. For Cn1c2c(c(=O)n(C)c1=O)C(NS(=O)(=O)c1ccc(Cl)cc1)(C(F)(F)F)C(=O)N2 (configuration not stated), the Potency was inconclusive: 18.4 µM [falling, single point]. For COc1ccc(C(=O)C/C(=C\C(=O)c2ccc(C)cc2)c2ccccc2)cc1, the Potency was inconclusive: 7.31 µM [falling, partial curve]. With CCOCCSc1nc2c(c(-c3cccs3)c1C#N)CC/C2=C/c1cccs1 the Potency was inconclusive: 3.26 µM [falling, partial curve]. In the case of O=C(Nc1ccccc1Cc1ccccc1)c1oc2ccccc2c1COc1ccccc1, the lipid storage change, negative = inhibition is reported as inconclusive: 8.66%. For CC1(c2ccccc2)NC(=O)N(NC(=O)COC(=O)c2cc(Br)ccc2O)C1=O (configuration not stated), the lipid storage change, negative = inhibition was “inconclusive”. With COc1ccc(CCNC(=O)C(=O)N/N=C/c2cccs2)cc1OC the lipid storage change, negative = inhibition was inconclusive: 5.27%. In the case of Cc1cccc(NC(=O)CN(CC2CCCO2)C(=O)c2ccc(S(C)(=O)=O)cc2)c1C (configuration not stated), the lipid storage change, negative = inhibition is reported as inconclusive: 399%. With COc1ccccc1OCCSc1nc(C)c(Cc2ccccc2)c(=O)[nH]1 the lipid storage change, negative = inhibition was inconclusive: 19.4%. For O=C(c1ccc(Cn2cc([N+](=O)[O-])cn2)o1)N1CCCC1, the Potency was inconclusive: 29.1 µM [activator, single point]. With COc1ccc(N(CC(=O)NN=C2CCCC2)S(=O)(=O)c2ccccc2)cc1Cl the lipid storage change, negative = inhibition was inconclusive: 3.45%. In the case of CCOC(=O)C1CSC(CC(=O)Nc2ccc(Cl)cc2)C(=O)N1 (configuration not stated), the Potency is reported as inconclusive: 0.259 µM [falling, full curve, poor fit]. In the case of COc1ccc2[nH]c3c(c2c1)CCN1C(=O)N([C@@H](C)C(=O)NCc2ccc(C)cc2)C(=O)[C@]31C, the Potency is reported as inconclusive: 23.1 µM [falling, single point]. For Cc1sc2ncn(Cc3ccccc3F)c(=O)c2c1C, the lipid storage change, negative = inhibition was inconclusive: -3.65%. With Cc1cccc(-c2nc(CSCC(=O)N3CCN(Cc4ccc5c(c4)OCO5)CC3)c(C)o2)c1 the lipid storage change, negative = inhibition was inconclusive: 2.12%. With CC(=O)Nc1ccc(NC(=O)C2CC(=O)N(Cc3ccco3)C2)cc1 (configuration not stated) the lipid storage change, negative = inhibition was “inconclusive”. In the case of CCCC(=O)C1C(=O)CC(CC(C)SCC)CC1=O (configuration not stated), the lipid storage change, negative = inhibition is reported as inconclusive: 3.32%. In the case of COc1ccc(NS(=O)(=O)c2cccc(C(=O)N3CCCC(C)C3)c2)cc1 (configuration not stated), the Potency is reported as inconclusive: 2.06 µM [falling, partial curve]. In the case of CCOC(=O)CNC(=O)COc1coc(CN2CCN(c3ccccc3F)CC2)cc1=O, the lipid storage change, negative = inhibition is reported as inconclusive: 65.7%. With Cc1[nH]c2ccccc2c1CCNC(=O)c1ccc2nccnc2c1 the lipid storage change, negative = inhibition was inconclusive: -76.8%. For O=C(O)CSCC(=O)Nc1cccc2ccccc12, the lipid storage change, negative = inhibition was inconclusive: -50.9%. In the case of O=C(CCCN1C(=O)CSc2ncccc21)N1CCN(c2cccc(C(F)(F)F)c2)CC1, the lipid storage change, negative = inhibition is reported as inconclusive: -89.1%. In the case of COc1ccccc1CNC(=O)CN(C)CC(=O)Nc1cccc(F)c1, the Potency is reported as inconclusive: 2.91 µM [activator, single point]. For Nn1c(SCC(=O)Nc2ccccc2C(F)(F)F)nncc1=O, the lipid storage change, negative = inhibition was inconclusive: 24.2%. With COCCCNCCOc1cc(C(C)C)ccc1C the lipid storage change, negative = inhibition was inconclusive: -12.8%. For Cc1c(C(c2ccc(F)cc2)c2c(C)n(C)n(-c3ccccc3)c2=O)c(=O)n(-c2ccccc2)n1C, the lipid storage change, negative = inhibition was inconclusive: -0.117%. In the case of Cc1ccc(Cl)cc1NC(=O)C(Cc1ccccc1)N1C(=O)C2C3CCC(C3)C2C1=O (configuration not stated), the lipid storage change, negative = inhibition is reported as inconclusive: -23.8%. In the case of CCc1ccc(NC(=O)C(C)OC(=O)CC(NC(C)=O)c2ccccc2)cc1 (configuration not stated), the Potency is reported as inconclusive: 6.51 µM [activator, single point]. For COC(=O)c1cc(S(=O)(=O)NCCc2ccc(Cl)cc2)c[nH]1, the Potency was inconclusive: 0.411 µM [activator, partial curve]. With COc1ccc(-n2nnnc2SCC(=O)NCCc2ccccc2)cc1OC the lipid storage change, negative = inhibition was inconclusive: 23%. For CC1C(c2ccccc2)N(C)C(c2ccccc2)CC1(O)c1ccccc1 (configuration not stated), the Potency was inconclusive: 18.4 µM [falling, single point]. In the case of CCOc1cccc(=O)c2c(C)n(CC3CCCO3)c(C)c12 (configuration not stated), the lipid storage change, negative = inhibition is reported as inconclusive: 78.2%. With COc1ccc(OC)c(CCNC(=O)C2CCN(c3nnc(-n4cccc4)s3)CC2)c1 the lipid storage change, negative = inhibition was inconclusive: 7.87% [at 9.22 µM]. In the case of CC(=O)c1cccc(NC(=S)NC(=O)c2cccc(C)c2)c1, the lipid storage change, negative = inhibition is reported as inconclusive: 84%. In the case of COC(=O)c1[nH]c2ccccc2c1NC(=O)CN1CCN(C(=O)c2ccco2)CC1, the lipid storage change, negative = inhibition is reported as inconclusive: 25.1%.
